According to patent US20260183367A1:
Results are given in words; binding and its absence hold for the method and conditions named. In cells and extracts the contact can be indirect. A yes stands for co-enrichment or nearness to the bait. Other partners may have been found. Where a sequence is shown, tags or fusion partners need not be part of it.

Sequences of proteins named here, by UniProt entry; tags and fusion partners are left off. Residues count along the entry.
UniProt P49790, residues 2-1475: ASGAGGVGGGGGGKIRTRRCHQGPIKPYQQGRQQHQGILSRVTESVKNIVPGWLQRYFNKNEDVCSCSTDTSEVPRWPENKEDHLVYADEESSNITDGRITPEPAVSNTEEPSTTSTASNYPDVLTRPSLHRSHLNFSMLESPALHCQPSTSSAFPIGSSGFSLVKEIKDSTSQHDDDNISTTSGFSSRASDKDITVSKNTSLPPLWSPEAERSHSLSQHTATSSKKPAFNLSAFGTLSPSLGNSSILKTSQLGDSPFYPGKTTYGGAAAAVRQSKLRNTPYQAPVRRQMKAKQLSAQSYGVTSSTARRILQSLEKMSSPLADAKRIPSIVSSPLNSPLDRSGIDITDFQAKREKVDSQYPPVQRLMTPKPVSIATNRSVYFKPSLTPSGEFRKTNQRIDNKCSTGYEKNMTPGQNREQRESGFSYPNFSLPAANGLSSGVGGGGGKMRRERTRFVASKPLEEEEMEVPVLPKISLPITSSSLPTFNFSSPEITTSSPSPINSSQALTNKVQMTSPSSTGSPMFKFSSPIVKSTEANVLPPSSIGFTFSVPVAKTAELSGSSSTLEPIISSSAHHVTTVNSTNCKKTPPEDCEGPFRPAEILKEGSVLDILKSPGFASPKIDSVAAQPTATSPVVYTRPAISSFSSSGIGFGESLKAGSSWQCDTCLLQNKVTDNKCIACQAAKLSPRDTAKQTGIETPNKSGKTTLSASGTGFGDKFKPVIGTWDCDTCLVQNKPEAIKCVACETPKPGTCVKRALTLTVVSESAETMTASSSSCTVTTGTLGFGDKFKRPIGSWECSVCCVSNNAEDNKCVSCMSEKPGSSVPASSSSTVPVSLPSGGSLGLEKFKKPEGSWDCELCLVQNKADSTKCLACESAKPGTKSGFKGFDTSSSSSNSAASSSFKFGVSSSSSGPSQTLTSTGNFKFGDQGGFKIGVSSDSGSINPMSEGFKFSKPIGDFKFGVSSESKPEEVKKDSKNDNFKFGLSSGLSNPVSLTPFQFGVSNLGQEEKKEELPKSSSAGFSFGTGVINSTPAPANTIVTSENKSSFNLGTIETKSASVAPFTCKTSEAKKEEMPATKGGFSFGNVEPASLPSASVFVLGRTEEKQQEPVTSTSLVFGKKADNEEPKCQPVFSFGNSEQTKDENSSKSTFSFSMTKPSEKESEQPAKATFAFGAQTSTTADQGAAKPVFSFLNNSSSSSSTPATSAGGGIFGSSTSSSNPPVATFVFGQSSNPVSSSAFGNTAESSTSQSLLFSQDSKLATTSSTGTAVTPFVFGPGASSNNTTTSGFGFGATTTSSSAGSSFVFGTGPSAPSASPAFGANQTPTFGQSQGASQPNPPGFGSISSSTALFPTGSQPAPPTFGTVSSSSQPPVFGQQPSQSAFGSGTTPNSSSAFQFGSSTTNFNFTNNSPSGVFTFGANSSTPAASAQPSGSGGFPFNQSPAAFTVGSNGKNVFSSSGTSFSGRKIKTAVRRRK

B1: mCherry-tagged Nup50 aa160-195 (peptide, not shown: large carriers)
chain: LAALNCSVRDWIVKHVNTNPLCDLTPIFKDYEKYLA
B2: mCherry-tagged Nup50 aa165-200 (peptide, not shown: large carriers)
chain: CSVRDWIVKHVNTNPLCDLTPIFKDYEKYLANIEQQ
B3: mCherry-tagged Nup50-N (1-210) (protein, not shown: large carriers)
chain: MAKRNAEKELTDRNWDQEDEAEDVGTFSMASEEVLKNRAIKKAKRRNVGFESDTGGAFKGFKGLVVPSGGGRFSGFGSGAGGKPLEGLSNGNNITSAPPFASAKAAADPKVAFGSLAANGPTTLVDKVSNPKTNGDSQQPSSSGLASSKACVGNAYHKQLAALNCSVRDWIVKHVNTNPLCDLTPIFKDYEKYLANIEQQHGNSGRNSES
B4: mCherry-tagged Nup50 160-200 (peptide, not shown: large carriers)
chain: LAALNCSVRDWIVKHVNTNPLCDLTPIFKDYEKYLANIEQQ

Experiments:
GFP-TDP-43-mNLS = GFP-TDP-43-mNLS (UniProt Q13148); experiment: immunoprecipitation and mass spectrometry, HEK293 cells
Nup153 = Nup153 (UniProt P49790); experiment: as above

binding (GFP-TDP-43-mNLS)	binding (Nup153)	Binder
binds	–	B1
binds	–	B2
–	binds	B3
–	binds	B4
